Source: publication PMC10011438
These are yes or no findings as the source states them, for the method shown. In cells and extracts the contact can be indirect. Some binding calls cover weakened binding; strength is not graded here.

Sequences of proteins named here, by UniProt entry; tags and fusion partners are left off.
UniProt P10415: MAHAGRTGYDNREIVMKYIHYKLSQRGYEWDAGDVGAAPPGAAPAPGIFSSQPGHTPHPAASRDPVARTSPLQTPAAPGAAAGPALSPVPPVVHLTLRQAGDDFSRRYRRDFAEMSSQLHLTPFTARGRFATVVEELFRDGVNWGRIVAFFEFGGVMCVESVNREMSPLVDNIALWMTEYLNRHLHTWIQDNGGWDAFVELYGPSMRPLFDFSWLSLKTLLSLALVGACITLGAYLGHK
UniProt P11881: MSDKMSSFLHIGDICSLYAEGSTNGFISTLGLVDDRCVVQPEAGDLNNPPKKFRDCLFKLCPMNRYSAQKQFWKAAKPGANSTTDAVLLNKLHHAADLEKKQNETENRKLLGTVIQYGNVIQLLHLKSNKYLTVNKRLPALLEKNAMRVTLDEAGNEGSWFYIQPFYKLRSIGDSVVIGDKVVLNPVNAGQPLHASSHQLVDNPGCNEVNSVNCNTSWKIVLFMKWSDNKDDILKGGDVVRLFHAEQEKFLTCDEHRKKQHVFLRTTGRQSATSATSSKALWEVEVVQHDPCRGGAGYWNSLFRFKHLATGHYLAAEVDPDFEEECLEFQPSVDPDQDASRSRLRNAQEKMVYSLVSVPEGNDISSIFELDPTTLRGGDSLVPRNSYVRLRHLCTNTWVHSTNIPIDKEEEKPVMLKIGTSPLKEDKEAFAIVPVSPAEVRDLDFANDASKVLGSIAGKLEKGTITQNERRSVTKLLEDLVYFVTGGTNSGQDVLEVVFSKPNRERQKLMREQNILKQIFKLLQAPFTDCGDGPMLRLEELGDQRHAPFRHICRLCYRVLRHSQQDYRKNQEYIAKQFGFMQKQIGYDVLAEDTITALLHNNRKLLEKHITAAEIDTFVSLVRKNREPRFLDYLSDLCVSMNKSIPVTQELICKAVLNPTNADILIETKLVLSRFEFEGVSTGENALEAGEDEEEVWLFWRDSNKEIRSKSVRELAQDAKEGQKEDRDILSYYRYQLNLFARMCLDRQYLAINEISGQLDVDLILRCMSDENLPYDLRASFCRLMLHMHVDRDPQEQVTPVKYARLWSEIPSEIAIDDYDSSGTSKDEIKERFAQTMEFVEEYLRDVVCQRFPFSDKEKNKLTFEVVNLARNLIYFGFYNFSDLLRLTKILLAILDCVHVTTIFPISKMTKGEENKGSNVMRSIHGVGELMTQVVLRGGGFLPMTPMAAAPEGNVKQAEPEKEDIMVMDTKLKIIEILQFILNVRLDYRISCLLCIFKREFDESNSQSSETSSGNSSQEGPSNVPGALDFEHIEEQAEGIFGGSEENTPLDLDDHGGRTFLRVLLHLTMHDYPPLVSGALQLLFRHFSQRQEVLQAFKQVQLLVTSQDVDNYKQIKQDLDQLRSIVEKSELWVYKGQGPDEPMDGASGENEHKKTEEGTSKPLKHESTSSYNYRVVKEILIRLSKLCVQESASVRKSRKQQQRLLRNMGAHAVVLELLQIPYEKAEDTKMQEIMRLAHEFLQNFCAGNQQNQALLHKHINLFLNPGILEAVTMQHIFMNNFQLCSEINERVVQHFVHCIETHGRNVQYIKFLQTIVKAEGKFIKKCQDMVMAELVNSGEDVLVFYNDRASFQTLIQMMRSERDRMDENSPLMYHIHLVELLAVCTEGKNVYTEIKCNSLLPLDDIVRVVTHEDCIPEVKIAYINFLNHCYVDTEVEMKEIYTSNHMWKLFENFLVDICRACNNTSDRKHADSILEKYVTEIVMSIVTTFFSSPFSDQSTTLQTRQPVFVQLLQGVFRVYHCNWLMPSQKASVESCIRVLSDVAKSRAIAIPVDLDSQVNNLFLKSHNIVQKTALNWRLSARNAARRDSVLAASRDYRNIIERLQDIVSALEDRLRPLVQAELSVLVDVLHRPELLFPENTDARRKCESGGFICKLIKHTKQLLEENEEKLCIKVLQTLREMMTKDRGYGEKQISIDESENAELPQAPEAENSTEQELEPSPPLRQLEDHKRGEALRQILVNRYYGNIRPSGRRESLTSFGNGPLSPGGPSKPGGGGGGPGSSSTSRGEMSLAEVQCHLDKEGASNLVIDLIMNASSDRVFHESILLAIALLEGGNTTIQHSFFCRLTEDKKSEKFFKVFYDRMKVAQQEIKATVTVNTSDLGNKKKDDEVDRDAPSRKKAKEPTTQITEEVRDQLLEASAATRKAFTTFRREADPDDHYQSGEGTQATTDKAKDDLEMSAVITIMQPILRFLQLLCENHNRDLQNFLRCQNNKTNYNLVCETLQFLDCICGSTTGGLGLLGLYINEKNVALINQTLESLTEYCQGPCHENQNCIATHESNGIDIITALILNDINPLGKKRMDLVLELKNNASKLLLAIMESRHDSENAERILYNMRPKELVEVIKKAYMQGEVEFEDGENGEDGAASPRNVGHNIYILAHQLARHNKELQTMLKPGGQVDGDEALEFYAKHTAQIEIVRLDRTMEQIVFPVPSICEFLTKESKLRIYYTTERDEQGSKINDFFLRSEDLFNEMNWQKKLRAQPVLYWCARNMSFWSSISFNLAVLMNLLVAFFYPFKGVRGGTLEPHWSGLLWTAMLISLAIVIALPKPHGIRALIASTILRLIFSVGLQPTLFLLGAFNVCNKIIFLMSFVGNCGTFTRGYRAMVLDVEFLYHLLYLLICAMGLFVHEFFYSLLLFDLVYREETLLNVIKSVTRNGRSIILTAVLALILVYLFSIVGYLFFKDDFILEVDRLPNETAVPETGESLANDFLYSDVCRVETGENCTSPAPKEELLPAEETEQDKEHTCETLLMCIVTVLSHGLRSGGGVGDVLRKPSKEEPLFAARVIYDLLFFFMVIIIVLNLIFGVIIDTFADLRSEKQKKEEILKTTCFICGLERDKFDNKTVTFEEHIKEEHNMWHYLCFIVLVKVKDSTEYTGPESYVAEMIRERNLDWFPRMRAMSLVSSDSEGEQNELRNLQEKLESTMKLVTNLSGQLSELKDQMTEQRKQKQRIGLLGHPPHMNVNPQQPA

Target: 3xFLAG-Bcl-2 (UniProt P10415)
Experiment: co-IP; anti-FLAG antibody on protein G magnetic particles; lysates of hippocampi of 5xFAD mice 30 days after AAV injection; lysis buffer 25 mM Tris, 150 mM NaCl, 10 mM EDTA, 1 % NP40, pH 7.6; 16 h at +4 °C; immunoblot for IP3R1, RyR2 and Bcl-2; control IgG

binding: binds
Substance: inositol-1,4,5-trisphosphate type 1 receptor (from UniProt P11881 1-2749)
